From patent publication US6638941B1 (OSI Pharmaceuticals, Inc., priority 1997, dated 2003) come the findings set out here.

The nature of this series: general procedure: solution-phase peptide synthesis; EDCI, HOBt, NMM. Conditions: late stage modification step.

The substance “Ac-Pro-Arg-Pro-Leu-spirolactam-Ala-Pro-Gly-OH” gave a step yield of 98% yield.
